Data: patent US5567805A, “The cellular receptor for the CS3 peptide of human immunodeficiency virus” (priority 1994, dated 1996)
Part of at least one peptide drawing is inferred or uncertain, most often the ends. Ends that are not written are not given here.

Tests used:
[1] = test system: CS3 receptor; assay: Crosslinking of 125-I-CCS3-APG to RH9 cell surface receptor polypeptides; type: binding, human; settings: RH9 cells, 100× concentration
[2] = test system: CS3 receptor; assay: Flow cytometric binding of FITC labelled C-CS3-HSA to RH9 cells; design: species or system human; settings: direct conjugation of FITC to CS3, no HSA
[3] = test system: CS3 receptor; assay: Expression of CS3 receptor on PBMC exposed to peptide conjugate; type: cell-based, human; settings: 72 hours, no mitogen
[4] = test system: HLA-DR; assay: Expression of HLA-DR on PBMC exposed to peptide conjugate; type: cell-based, human; settings: 72 hours, no mitogen
[5] = test system: HIV; assay: HIV cell binding assay (silicon oil centrifugation, p24 antigen capture) on MT4 cells; type: cell-based, human immunodeficiency virus; settings: 5 μg/10^6 cells (saturating by flow cytometry)
[6] = test system: lymphocytes; assay: Lymphocyte activation by CS3; type: cell-based, human; settings: unconjugated to HSA
[7] = test system: human T lymphocytes; settings: mitogenic or allogeneic stimuli; Cianciolo et al. 1988; cited from earlier work
[8] = test system: B cell; settings: Cianciolo et al. 1988; cited from earlier work

Sequence | cold competition of 125-I-CCS3-APG crosslinking [1] | staining with FITC directly conjugated to CS3 [2] | density of expression of CS3 receptor [3] | percentage of cells expressing CS3 receptor [3] | increase in the percentage of cells expressing HLA-DR [4] [fold] | inhibition of HIV binding [5] | partial activation of lymphocytes [6] | suppression of in vitro proliferative response of human T lymphocytes [7] | B cell proliferation in response to anti-IgG [8]
CLQARILAVERYLKDQQL [CCS3] | Specificity was demonstrated by cold competition | – | – | – | – | – | – | – | –
LQARILAVERYLKDQQL [CS3] | – | ineffective in staining | two-fold | increased | 10 | complete inhibition of binding | fails to partially activate lymphocytes | capable of suppressing | not altered
